These are yes or no findings as the source states them, for the method shown. In cells and extracts the contact can be indirect. Some entries that bind do so weakly or less than the wild type. Values belong to the binder of their own block, whether it stands above or below them.
Molecular target: GST-ASK1 fusion protein (Arabidopsis) (UniProt Q39255)
Assay: in vitro GST pull-down of 35S-labeled protein

Protein sequences, listed by entry. Tags and fused reporters are not part of them.
UniProt Q39255: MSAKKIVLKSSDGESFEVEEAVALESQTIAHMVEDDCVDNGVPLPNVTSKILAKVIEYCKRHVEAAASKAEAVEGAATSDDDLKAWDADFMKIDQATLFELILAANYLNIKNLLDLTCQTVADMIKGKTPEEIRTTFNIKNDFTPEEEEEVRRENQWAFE

- binding: binds
B1: 35S-labeled ORE9 (1-327), in vitro translated (protein)
chain: MASTTLSDLPDVILSTISSLVSDSRARNSLSLVSHKFLALERSTRSHLTIRGNARDLSLVPDCFRSISHLDLSFLSPWGHTLLASLPIDHQNLLALRLKFCFPFVESLNVYTRSPSSLELLLPQWPRIRHIKLLRWHQRASQIPTGGDFVPIFEHCGGFLESLDLSNFYHWTEDLPPVLLRYADVAARLTRLDLLTASFTEGYKSSEIVSITKSCPNLKTFRVACTFDPRYFEFVGDETLSAVATSSPKLTLLHMVDTASLANPRAIPGTEAGDSAVTAGTLIEVFSGLPNLEELVLDVGKDVKHSGVALEALNSKCKKLRVLKLGQ
modifications: [35S]-methionine label

- binding: binds
B2: 35S-labeled mutant type ore9 protein, in vitro translated (protein)
chain: MASTTLSDLPDVILSTISSLVSDSRARNSLSLVSHKFLALERSTRSHLTIRGNARDLSLVPDCFRSISHLDLSFLSPWGHTLLASLPIDHQNLLALRLKFCFPFVESLNVYTRSPSSLELLLPQWPRIRHIKLLRWHQRASQIPTGGDFVPIFEHCGGFLESLDLSNFYHWTEDLPPVLLRYADVAARLTRLDLLTASFTEGYKSSEIVSITKSCPNLKTFRVACTFDPRYFEFVGDETLSAVATSSPKLTLLHMVDTASLANPRAIPGTEAGDSAVTAGTLIEVFSGLPNLEELVLDVGKDVKHSGVALEALNSKCKKLRVLKLG
modifications: [35S]-methionine label

— patent US20040123344A1, “Novel gene encoding an f-box protein which regulates leaf longevity in arabidopsis thaliana and mutant gene thereof” (priority 2000, published 2004)
